Source: PubChem BioAssay AID1259254 (NCATS, 2017)

Screen: 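Genome-wide screen for genes that prevent DNA re-replication in cancer cells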 (primary screen)
Cells: human HCT116 colorectal cancer cells
Knock-down reagent: single siRNA against human genes
Duration: 3 days
Measured: 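Nuclei stained with Hoechst and imaged; cell-cycle phase assigned by DNA content; G2 share scaled per plate, non-targeting siRNA 0%, GMNN siRNA 100%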
Scale: G2 robust z-score: higher = more G2 cells, more excess DNA replication
Rule for the call: 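An siRNA counts as active if its G2 robust z-score lies at least 5 MADs above the screen median; here such calls match roughly 38% of GMNN control or more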
In all, the deposit lists about 59,000 reagents; below is a random part of them. About 1,550 of all reagents (2.6%) were called active. 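G2 share is only a proxy for re-replication; each gene was hit by three separate siRNAs, and active genes were retested.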 Reagents against one gene are numbered here. Not all columns of the deposit are shown. No sequences are given here. Not given: the amount of reagent.

target,siRNA no.,G2 robust z-score,activity call
"KIT (KIT proto-oncogene, receptor tyrosine kinase)",1,0.389,inactive
"KIT (KIT proto-oncogene, receptor tyrosine kinase)",2,-1.12,inactive
"KIT (KIT proto-oncogene, receptor tyrosine kinase)",3,-0.525,inactive
ZSWIM6 (zinc finger SWIM-type containing 6),1,0.363,inactive
ZSWIM6 (zinc finger SWIM-type containing 6),2,-0.138,inactive
ZSWIM6 (zinc finger SWIM-type containing 6),3,-0.807,inactive
B2M (beta-2-microglobulin),1,-0.503,inactive
B2M (beta-2-microglobulin),2,1.28,inactive
B2M (beta-2-microglobulin),3,-1.14,inactive
GPR42 (G protein-coupled receptor 42),1,-1,inactive
GPR42 (G protein-coupled receptor 42),2,-0.693,inactive
GPR42 (G protein-coupled receptor 42),3,-0.759,inactive
PPIAP74 (peptidylprolyl isomerase A pseudogene 74),1,-1.02,inactive
PPIAP74 (peptidylprolyl isomerase A pseudogene 74),2,0.596,inactive
PPIAP74 (peptidylprolyl isomerase A pseudogene 74),3,-0.209,inactive
TAOK3 (TAO kinase 3),1,-0.971,inactive
TAOK3 (TAO kinase 3),2,-0.785,inactive
TAOK3 (TAO kinase 3),3,-0.11,inactive
EAF1 (ELL associated factor 1),1,0.693,inactive
EAF1 (ELL associated factor 1),2,-1.08,inactive
EAF1 (ELL associated factor 1),3,0.706,inactive
NKX2-4 (NK2 homeobox 4),1,-0.394,inactive
NKX2-4 (NK2 homeobox 4),2,-1,inactive
NKX2-4 (NK2 homeobox 4),3,0.0456,inactive

6 of these entries in another layout:
target	siRNA no.	G2 robust z-score	activity call
GPR42 (G protein-coupled receptor 42)	3	-0.759	inactive
PPIAP74 (peptidylprolyl isomerase A pseudogene 74)	1	-1.02	inactive
PPIAP74 (peptidylprolyl isomerase A pseudogene 74)	2	0.596	inactive
PPIAP74 (peptidylprolyl isomerase A pseudogene 74)	3	-0.209	inactive
TAOK3 (TAO kinase 3)	1	-0.971	inactive
TAOK3 (TAO kinase 3)	2	-0.785	inactive

Next results follow.
target,siRNA no.,G2 robust z-score,activity call
CTU1 (cytosolic thiouridylase subunit 1),1,3.21,inactive
CTU1 (cytosolic thiouridylase subunit 1),2,0.35,inactive
CTU1 (cytosolic thiouridylase subunit 1),3,-0.358,inactive
ZNF7 (zinc finger protein 7),1,-0.597,inactive
ZNF7 (zinc finger protein 7),2,-0.272,inactive
ZNF7 (zinc finger protein 7),3,-0.781,inactive
RHOBTB3 (Rho related BTB domain containing 3),1,-0.0286,inactive
RHOBTB3 (Rho related BTB domain containing 3),2,0.0458,inactive
RHOBTB3 (Rho related BTB domain containing 3),3,0.0156,inactive
NLRP11 (NLR family pyrin domain containing 11),1,-0.671,inactive
NLRP11 (NLR family pyrin domain containing 11),2,0,inactive
NLRP11 (NLR family pyrin domain containing 11),3,0.886,inactive
ABI2 (abl interactor 2),1,5.55,active
ABI2 (abl interactor 2),2,-0.813,inactive
ABI2 (abl interactor 2),3,0.962,inactive
CDH26 (cadherin 26),1,-0.862,inactive
CDH26 (cadherin 26),2,0.24,inactive
CDH26 (cadherin 26),3,-0.874,inactive
CLN6 (CLN6 transmembrane ER protein),1,-0.164,inactive
CLN6 (CLN6 transmembrane ER protein),2,0.941,inactive
CLN6 (CLN6 transmembrane ER protein),3,-0.308,inactive
CEP120 (centrosomal protein 120),1,0.0524,inactive
CEP120 (centrosomal protein 120),2,0.516,inactive
CEP120 (centrosomal protein 120),3,1.08,inactive
